The values are deposited in ChEMBL (CHEMBL3988442, “University of Dundee, Small-Polar-MMV Screening Library” (2021)).

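Viability assay of Plasmodium falciparum sporozoites; the read-out is not stated. The concentration is filed as 10 mM, unlikely as a test dose, so the dose is not known. Higher reads as lower viability (inferred: compounds with an IC50 in retests scored well above the rest). Strong results were mostly tested again. Size under these conditions: about 34,000 compounds, about 280 of them at 50% or above in at least one test.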

Values are the deposited “Percent Effect”, in %.
The controls that fix the scale are not given in the record; negative values are as filed.
The compounds are a random part of those screened.
Two or more numbers in one place are separate tests of the same structure; such repeats can differ widely.

| # | compound | Percent Effect |
|---|---|---|
| 1 | `CCOc1ccccc1C(=O)Nn1c(C)cc(C)cc1=O` | 5.263 |
| 2 | `CC(=O)N[C@H]1CCO[C@@H](c2cccc(NC(=O)c3cccc(F)c3)c2)C1` | 55.02 and 42.93 and 54.57 |
| 3 | `Cc1nn(C)c(C)c1C1CCCN1Cc1cccc(C(=O)N(C)C)c1` (stereo not shown) | 2.549 |
| 4 | `Cc1cc(CN2CCC(CNC(=O)c3ccc(O)c(Cl)c3)C2)[nH]n1` (stereo not shown) | -4.383 |
| 5 | `O=C(NCCOC1CCCC1)c1ccc(-c2ccco2)[nH]c1=O` | 10.69 |
| 6 | `Cn1cnc(S(=O)(=O)N2CC3(CCN(Cc4ccncc4)C3)C2)c1.O=C(O)C(F)(F)F.O=C(O)C(F)(F)F.O=C(O)C(F)(F)F` | 3.713 |
| 7 | `Cc1nc(CN(C)C2CCN(CCCOc3ccccc3)C2)no1` (stereo not shown) | -6.044 |
| 8 | `O=C(c1cccc(Cl)c1)N1CCCC(Nc2ccc(F)cc2)C1` (stereo not shown) | -5.702 |
| 9 | `Cc1ccc(OCCCNC(=O)NC(C)c2nncn2C)cc1` (stereo not shown) | -6.243 |
| 10 | `Cc1cn2c(n1)CCC(NC(=O)c1c[nH]c(C)n1)C2` (stereo not shown) | 0 |
| 11 | `O=C(O)C(F)(F)F.[H][C@@]12CCN(c3cccnc3)C[C@]1([H])CN(C(=O)c1ccco1)C2` | 5.051 |
| 12 | `CNc1cc(C2CCCN(S(=O)(=O)c3cn[nH]c3)C2)ccn1` (stereo not shown) | 10.69 |
| 13 | `CC(=O)NCCC(=O)NCc1cccnc1-n1cnc2ccccc21` | -13.2 |
| 14 | `COc1ncccc1CNC(=O)NC1CCOc2ccccc21` (stereo not shown) | -3.425 |
| 15 | `O=C(NCCNc1ccc(C(F)(F)F)cn1)c1ccc(Cl)cc1F` | 6.293 |
| 16 | `O=S(=O)(NCC1CCN(c2ccccn2)CC1)c1ccccc1F` | -14.19 |
| 17 | `CCn1c(CN2CCCC(O)(c3ccc(F)cc3)CC2)cnc1SC.O=C(O)CC(O)(CC(=O)O)C(=O)O` (stereo not shown) | 10.88 |
| 18 | `COCC1CN(c2ccc3c(Cl)ccnc3c2F)CCO1` (stereo not shown) | -13.43 and -25.25 |
| 19 | `Cn1ccc(CN2CCC(OCc3ccccc3)CC2)cc1=O` | 5.725 |
| 20 | `COCC(=O)N1CCc2nc(-c3cnccn3)nc(O)c2C1` | -9.748 |
| 21 | `Cc1nn(C)c(C)c1C1CCCN1C(=O)c1cnc2onc(C)c2c1` (stereo not shown) | 2.684 |
| 22 | `O=C1NCCN2CCN(C(=O)NCCc3ccccc3)CC12` (stereo not shown) | 64.04 and 69.93 |
| 23 | `CCc1oc(C(=O)NC(C)Cc2cnccn2)cc1CN1CCCC1` (stereo not shown) | 0.7162 |
| 24 | `Cc1cc(C)c(CNC(=O)NCC2CCCOC2)c(=O)[nH]1` (stereo not shown) | 11.56 |
| 25 | `O=C(O)C(F)(F)F.O=C(O)C(F)(F)F.[H][C@@]12COC[C@]1(C(=O)NCc1cccnc1)CN(Cc1scnc1C)C2` | 3.906 |
| 26 | `O=C(c1cccnc1SCc1ccccc1)N1CC[C@@H](O)C1` | -3.112 |
| 27 | `[H][C@@]12C[C@H](C)O[C@@]1([H])CCN(C(=O)COC)C2` | 16.92 |
| 28 | `O=C(O)CC(O)(CC(=O)O)C(=O)O.OCCN(Cc1ccncc1)CC1(c2ccc(Cl)cc2)CC1` | 10.72 |
| 29 | `[H][C@]12CCN(C(=O)c3ccoc3)[C@@]1([H])CC[C@H](COCC1CCOCC1)O2` | -2.021 |
| 30 | `Cn1cc(-c2cnc(N3CCOCC3)nc2)cc1C(=O)NCCC#N.O=C(O)C(F)(F)F` | -0.7732 |
| 31 | `COCc1ccc(C(=O)N2CCCN(Cc3cscn3)CC2)cc1` | 8.845 |
| 32 | `O=C(O)C(F)(F)F.O=C(O)C(F)(F)F.[H][C@@]12CN(Cc3ccccn3)C[C@H](C(=O)Nc3cccnc3)[C@]1([H])CCO2` | -0.2555 |
| 33 | `Cc1cc(C(=O)N2CCC(O)(Cn3ccc4ccncc43)CC2)on1` | -1.448 |
| 34 | `OCCn1cc(CN2CCN(CCOc3ccccc3F)CC2)cn1` | -1.921 |
| 35 | `COc1cc(C(C#N)NC(=O)CC2=CCCCC2)cc(OC)c1OC` (stereo not shown) | 1.665 |
| 36 | `CC(C1CC1)N(C)C(=O)c1ccc(-n2ncc(C#N)c2N)cc1` (stereo not shown) | 0.06752 |
| 37 | `CCCC1c2cccn2CCN1C(=O)c1cc(CC)no1` (stereo not shown) | -5.021 |
| 38 | `COCC1CC2(CCN(C(=O)c3ccccc3C)CC2)CN1C(C)C.O=C(O)C(F)(F)F` (stereo not shown) | 10.65 |
| 39 | `Cc1ccccc1CC(=O)N1C[C@@H](O)[C@H](N2CCC(F)(F)CC2)C1` | -14.05 |
| 40 | `CCn1ccnc1CN1CCN(CC(=O)NC(=O)NC2CC2)CC1` | -18.08 and 1.484 and -13.99 |
| 41 | `Cc1ccccc1OCCC(=O)OC(C)C(=O)Nc1sccc1C(N)=O` (stereo not shown) | 0 |
| 42 | `O=C(CCNS(=O)(=O)c1ccc(F)c(F)c1)NCc1ccoc1` | -3.922 |
| 43 | `Cc1occc1C(=O)N1CC[C@@H](N2CCOCC2)[C@@H]1Cc1ccccc1` | -15.1 |
| 44 | `CN(C)C1CC2(CCN(C(=O)NC3CC3)CC2)c2ccccc21.O=C(O)C(F)(F)F` (stereo not shown) | 14.57 |
| 45 | `[H][C@@]12CCCCCN(C)[C@@]1([H])[C@H](c1ccccc1)CN2S(=O)(=O)N(CC)CC` | 7.555 |
| 46 | `Cn1nnc2c1C(COCc1cccnc1)CN(Cc1ccoc1)C2.O=C(O)C(F)(F)F.O=C(O)C(F)(F)F` (stereo not shown) | 12.41 |
| 47 | `CCn1cnnc1CNC(=O)NC(c1cccs1)C1CCCC1` (stereo not shown) | 12.17 |
| 48 | `O=C(c1ccc2[nH]nnc2c1)N1CCCC(n2cccn2)C1` (stereo not shown) | 3.79 |
| 49 | `Cc1oncc1C(=O)N1CCC2(CC1)C(c1cnn(C)c1)CC(=O)N2C` (stereo not shown) | -14.63 |
| 50 | `CCOCC(O)CN1CCN(C(=O)Cc2ccc3c(c2)CCC3)CC1` (stereo not shown) | 3.211 |
| 51 | `Cc1nc(C(=O)N2CCc3c(nc(-c4ccncc4)[nH]c3=O)C2)cs1` | 10.08 |
| 52 | `COc1ncccc1C(=O)N1CCCC(n2ccnc2C)C1` (stereo not shown) | -5.103 |
| 53 | `O=C(O)C(F)(F)F.O=C(O)C(F)(F)F.[H][C@@]12CC(COCc3cccnc3)C[C@@]1([H])N(c1ncc(C)cn1)CCO2` (stereo partly shown) | 13 |
| 54 | `Cc1cnn(CC2CCCCN2C(=O)c2cccnc2N(C)C)c1` (stereo not shown) | 9.757 |
| 55 | `Cc1cc(C(=O)NCc2ccnc(N3CCOCC3)c2)c(C)s1` | 3.722 |
| 56 | `CCN1CCC(CNC(=O)C2(c3cccc(C)c3)CC2)C1` (stereo not shown) | -9.069 |
| 57 | `O=S(=O)(c1cn[nH]c1)N1C[C@@H](O)[C@H](N2CCc3ccccc3C2)C1` | 11.37 |
| 58 | `CCOCC1CN(C(=O)Cc2ccccn2)Cc2cnn(C)c21.O=C(O)C(F)(F)F.O=C(O)C(F)(F)F` (stereo not shown) | 2.024 |
| 59 | `Cc1csc(CNC(=O)NCC(O)c2cccc(Cl)c2)n1` (stereo not shown) | -23.18 |
| 60 | `Nc1nccnc1CC1CCCN(Cc2ccnc3ccccc23)C1` (stereo not shown) | -26.02 |
| 61 | `[H][C@@]12C[C@H](C(=O)Nc3cccnc3)[C@@]([H])(CN(Cc3ccc(F)cc3)C1)O2` | -8.677 |
| 62 | `Cc1ccc(-c2nc(CN3CCN(CC(=O)N(C)C)CC3)cs2)o1` | -10.16 and 5.451 and 7.307 |
| 63 | `Cc1ccc(C(CNC(=O)NCc2cc[nH]n2)N2CCOCC2)o1` (stereo not shown) | 0.4831 |
| 64 | `Cc1cccc(OC2CN(C(=O)C3CC(=O)N(C(C)(C)C)C3)C2)c1` (stereo not shown) | -17.95 |
| 65 | `Cc1cc(C)n(CC2CN(Cc3cc(C)on3)CCO2)n1` (stereo not shown) | 4.179 |
| 66 | `COCc1cncc2c1CCN(C(=O)c1ccc(C#N)cc1)C2.O=C(O)C(F)(F)F` | 7.706 |
| 67 | `Cc1cc(NC(=O)CNC2CCc3nc(C(C)C)nn3C2)no1` (stereo not shown) | 3.617 |
| 68 | `CNc1cncc(C2CCCN2Cc2ccccc2OCC(=O)O)n1` (stereo not shown) | -6.043 |
| 69 | `CNc1ncc(CN(C)C2CCN(C(C)C)CC2)cn1` | -6.057 |
| 70 | `CNS(=O)(=O)c1ccc(CNC(=O)c2c(C)oc(C)c2C)cc1` | 4.591 |
| 71 | `COc1ccnc(N2CCCN(C(=O)Cc3ccc(C)s3)CC2)n1` | 9.558 |
| 72 | `Cc1[nH]c(=O)[nH]c(=O)c1CN1CCCC(CCc2ccccc2)C1` (stereo not shown) | -0.3529 |
| 73 | `[H][C@@]12C[C@@H](Oc3ccccc3)C[C@]1([H])CN(C(=O)c1cnn(C)c1)C2` | -5.827 |
| 74 | `[H][C@@]12CC[C@@](O)(c3ccc(C)cn3)[C@]1([H])CN(Cc1ccc(SC)cc1)C2` | 7.395 |
| 75 | `N#Cc1ccc(OC2CCN(CC(=O)NCC3CCCO3)CC2)cc1` (stereo not shown) | -12.1 |
| 76 | `CNC(=O)c1sc2ccccc2c1C1CCN(c2cc(C)nc(C)n2)C1` (stereo not shown) | 9.687 |
| 77 | `CN1CCN(C)C(c2nnc3ccc(C(=O)N4CCOCC4)cn23)C1.O=C(O)C(F)(F)F.O=C(O)C(F)(F)F` (stereo not shown) | -17.23 |
| 78 | `COCCN(Cc1ccoc1)C(=O)c1ccccc1Cl` | -6.369 |
| 79 | `CNC(=O)[C@@H]1[C@@H](OC(=O)Nc2ccccc2)C(=O)N(C)C12CCNCC2` | -23.71 |
| 80 | `CC(O)CN1CCN(C(=O)c2cc3ccccc3c(=O)[nH]2)CC1` (stereo not shown) | -15.45 |
| 81 | `COc1ccc(N(c2ccc(OC)cc2)c2ccc(C(=O)O)s2)cc1` | -133.3 |
| 82 | `O=C(c1ccc2[nH]ccc2c1)N1CCCSCC1CN1CCCC1` (stereo not shown) | 5.819 |
| 83 | `CC(C)n1cnnc1CN(C)Cc1ccc(CO)o1` | -52.34 and -30.46 |
| 84 | `CN(CCC(F)(F)F)C(=O)C1CCCN1C(=O)OC(C)(C)C` (stereo not shown) | -6.494 |
| 85 | `CCOc1c(Cl)cc(/C=C/c2ncc(C(=O)O)s2)cc1OC` | 4.7 |
| 86 | `CC1(c2ncc(CN3CCN(c4ccccn4)CC3)cn2)CCCCO1` (stereo not shown) | -3.016 |
| 87 | `Cc1cc(NC(=O)NCC(O)COc2ccccc2)n(C)n1` (stereo not shown) | 2.677 |
| 88 | `CNC(=O)COc1c(C(C)=O)ccc(Cl)c1Cl` | -3.429 |
| 89 | `CCOc1ncccc1NC(=O)c1cc2c(s1)CCC2` | -0.6719 |
| 90 | `CS(=O)(=O)N1CCCC(Cc2cnc(Br)cn2)C1` (stereo not shown) | 8.654 |

Repeated from the top, 6 entries:

compound	Percent Effect
CCOc1ccccc1C(=O)Nn1c(C)cc(C)cc1=O	5.263
CC(=O)N[C@H]1CCO[C@@H](c2cccc(NC(=O)c3cccc(F)c3)c2)C1	55.02 and 42.93 and 54.57
Cc1nn(C)c(C)c1C1CCCN1Cc1cccc(C(=O)N(C)C)c1 (stereo not shown)	2.549
Cc1cc(CN2CCC(CNC(=O)c3ccc(O)c(Cl)c3)C2)[nH]n1 (stereo not shown)	-4.383
O=C(NCCOC1CCCC1)c1ccc(-c2ccco2)[nH]c1=O	10.69
Cn1cnc(S(=O)(=O)N2CC3(CCN(Cc4ccncc4)C3)C2)c1.O=C(O)C(F)(F)F.O=C(O)C(F)(F)F.O=C(O)C(F)(F)F	3.713